From US20250011471A1
No constants are given. Whether binding was seen depends on the method and setting. Some binding calls cover weakened binding; strength is not graded here.

Columns and labels:
Assay in all cases: FACS on HEK293T cells transiently transfected with the KLB cDNA
[1] = molecular target: rabbit KLB (+N-ter FLAG) (rabbit)
[2] = molecular target: cynomolgus monkey KLB (+N-ter FLAG) (cynomolgus monkey)
[3] = molecular target: rhesus monkey KLB (+N-ter FLAG) (rhesus monkey)

Measured: binding

B1: 8E1 (antibody, V domains shown)
VH: EVQLQQSGAELVKPGASVKLSCTAADFNIKDTYMHWVKQRPEQGLEWIGRIDPSNGNAKYDPKFQGKASITADSSSNTAYLHLSSLTSEDTAVYYCASRALGNGYALGYWGQGTSVTVSS
VL: DIQMTQSSSYLSVSLGGSVTITCKASDHINNWLAWYQQKPGNAPRLLIYGTTNLETGVPSRFSGSGSGRDYILSITSLQSEDVASYYCQQYWNTPFTFGSGTKLEIK
binds: all assays above
